The source of these data is the supplement of paper PMC11732987, “Enantioselective OTUD7B fragment discovery through chemoproteomics screening and high-throughput optimisation” (Communications Chemistry, 2025).

Sequences of proteins named here, by UniProt entry; tags and fusion partners are left off. A change or cut given only in a name is not applied to a line headed by its entry.
UniProt Q8IY92: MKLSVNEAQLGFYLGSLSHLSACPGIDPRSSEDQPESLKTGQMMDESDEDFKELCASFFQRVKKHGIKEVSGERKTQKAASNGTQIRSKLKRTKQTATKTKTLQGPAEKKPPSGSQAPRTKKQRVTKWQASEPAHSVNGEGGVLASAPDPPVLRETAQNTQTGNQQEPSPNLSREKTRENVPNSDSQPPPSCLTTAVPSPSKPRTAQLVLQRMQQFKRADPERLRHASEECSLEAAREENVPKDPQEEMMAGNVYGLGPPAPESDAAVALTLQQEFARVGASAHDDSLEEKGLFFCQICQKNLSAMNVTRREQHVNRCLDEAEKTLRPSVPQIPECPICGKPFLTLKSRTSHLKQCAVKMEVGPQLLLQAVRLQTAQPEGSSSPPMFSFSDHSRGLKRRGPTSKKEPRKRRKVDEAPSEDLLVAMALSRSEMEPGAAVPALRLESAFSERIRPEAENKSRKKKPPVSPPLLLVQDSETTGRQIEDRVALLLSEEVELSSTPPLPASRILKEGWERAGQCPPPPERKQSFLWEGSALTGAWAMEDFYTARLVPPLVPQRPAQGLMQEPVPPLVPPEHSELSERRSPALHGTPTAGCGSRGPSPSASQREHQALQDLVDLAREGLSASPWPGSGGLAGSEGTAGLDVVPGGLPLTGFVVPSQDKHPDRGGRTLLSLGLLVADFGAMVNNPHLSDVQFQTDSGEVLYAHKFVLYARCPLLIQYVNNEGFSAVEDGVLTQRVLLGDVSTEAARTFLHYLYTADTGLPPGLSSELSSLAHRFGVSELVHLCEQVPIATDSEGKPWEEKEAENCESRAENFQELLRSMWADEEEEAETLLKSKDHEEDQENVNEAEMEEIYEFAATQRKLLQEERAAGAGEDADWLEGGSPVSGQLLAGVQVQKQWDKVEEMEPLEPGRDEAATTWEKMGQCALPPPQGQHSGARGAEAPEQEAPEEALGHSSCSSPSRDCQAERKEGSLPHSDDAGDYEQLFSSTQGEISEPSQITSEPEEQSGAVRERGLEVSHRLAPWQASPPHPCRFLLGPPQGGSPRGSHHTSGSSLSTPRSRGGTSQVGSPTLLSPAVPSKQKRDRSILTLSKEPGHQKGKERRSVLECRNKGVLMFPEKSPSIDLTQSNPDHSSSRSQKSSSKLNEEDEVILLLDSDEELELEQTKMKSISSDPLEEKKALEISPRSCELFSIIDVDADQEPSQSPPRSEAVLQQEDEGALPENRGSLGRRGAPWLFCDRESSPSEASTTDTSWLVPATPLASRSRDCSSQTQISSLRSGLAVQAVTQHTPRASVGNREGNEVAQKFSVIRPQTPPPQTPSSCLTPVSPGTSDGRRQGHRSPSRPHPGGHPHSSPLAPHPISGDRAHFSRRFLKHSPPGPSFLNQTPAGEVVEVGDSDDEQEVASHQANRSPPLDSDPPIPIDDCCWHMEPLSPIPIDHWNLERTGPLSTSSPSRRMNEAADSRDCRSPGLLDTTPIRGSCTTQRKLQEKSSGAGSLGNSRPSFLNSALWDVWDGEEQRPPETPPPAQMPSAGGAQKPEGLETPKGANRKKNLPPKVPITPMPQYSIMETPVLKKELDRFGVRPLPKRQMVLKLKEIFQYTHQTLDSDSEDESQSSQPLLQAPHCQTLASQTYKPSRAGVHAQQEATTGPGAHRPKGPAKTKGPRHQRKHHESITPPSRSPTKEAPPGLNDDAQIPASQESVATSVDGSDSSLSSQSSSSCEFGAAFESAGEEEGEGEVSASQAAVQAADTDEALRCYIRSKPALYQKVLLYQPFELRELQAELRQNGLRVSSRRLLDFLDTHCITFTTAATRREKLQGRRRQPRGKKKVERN
UniProt O14745: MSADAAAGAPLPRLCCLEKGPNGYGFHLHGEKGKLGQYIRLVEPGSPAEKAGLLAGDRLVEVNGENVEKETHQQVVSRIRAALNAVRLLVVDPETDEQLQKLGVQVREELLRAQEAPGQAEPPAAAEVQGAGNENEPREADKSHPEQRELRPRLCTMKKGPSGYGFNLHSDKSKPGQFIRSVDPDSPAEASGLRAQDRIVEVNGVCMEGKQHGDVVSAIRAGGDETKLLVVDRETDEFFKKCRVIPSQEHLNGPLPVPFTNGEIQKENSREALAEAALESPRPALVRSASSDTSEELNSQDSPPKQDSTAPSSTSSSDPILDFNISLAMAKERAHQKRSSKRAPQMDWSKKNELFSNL
UniProt O95219: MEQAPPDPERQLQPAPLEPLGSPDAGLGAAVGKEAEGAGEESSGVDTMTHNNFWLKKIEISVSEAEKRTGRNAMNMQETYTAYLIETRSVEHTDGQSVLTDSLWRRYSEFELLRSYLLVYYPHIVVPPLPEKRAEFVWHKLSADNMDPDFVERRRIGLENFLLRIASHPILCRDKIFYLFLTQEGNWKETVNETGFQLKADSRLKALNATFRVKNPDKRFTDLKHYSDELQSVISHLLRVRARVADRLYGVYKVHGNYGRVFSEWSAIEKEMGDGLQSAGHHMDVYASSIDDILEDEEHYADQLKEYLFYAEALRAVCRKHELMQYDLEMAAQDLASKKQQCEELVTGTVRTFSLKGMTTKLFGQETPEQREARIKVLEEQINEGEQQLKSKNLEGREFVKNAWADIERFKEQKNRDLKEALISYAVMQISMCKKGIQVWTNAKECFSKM
UniProt Q7KZF4: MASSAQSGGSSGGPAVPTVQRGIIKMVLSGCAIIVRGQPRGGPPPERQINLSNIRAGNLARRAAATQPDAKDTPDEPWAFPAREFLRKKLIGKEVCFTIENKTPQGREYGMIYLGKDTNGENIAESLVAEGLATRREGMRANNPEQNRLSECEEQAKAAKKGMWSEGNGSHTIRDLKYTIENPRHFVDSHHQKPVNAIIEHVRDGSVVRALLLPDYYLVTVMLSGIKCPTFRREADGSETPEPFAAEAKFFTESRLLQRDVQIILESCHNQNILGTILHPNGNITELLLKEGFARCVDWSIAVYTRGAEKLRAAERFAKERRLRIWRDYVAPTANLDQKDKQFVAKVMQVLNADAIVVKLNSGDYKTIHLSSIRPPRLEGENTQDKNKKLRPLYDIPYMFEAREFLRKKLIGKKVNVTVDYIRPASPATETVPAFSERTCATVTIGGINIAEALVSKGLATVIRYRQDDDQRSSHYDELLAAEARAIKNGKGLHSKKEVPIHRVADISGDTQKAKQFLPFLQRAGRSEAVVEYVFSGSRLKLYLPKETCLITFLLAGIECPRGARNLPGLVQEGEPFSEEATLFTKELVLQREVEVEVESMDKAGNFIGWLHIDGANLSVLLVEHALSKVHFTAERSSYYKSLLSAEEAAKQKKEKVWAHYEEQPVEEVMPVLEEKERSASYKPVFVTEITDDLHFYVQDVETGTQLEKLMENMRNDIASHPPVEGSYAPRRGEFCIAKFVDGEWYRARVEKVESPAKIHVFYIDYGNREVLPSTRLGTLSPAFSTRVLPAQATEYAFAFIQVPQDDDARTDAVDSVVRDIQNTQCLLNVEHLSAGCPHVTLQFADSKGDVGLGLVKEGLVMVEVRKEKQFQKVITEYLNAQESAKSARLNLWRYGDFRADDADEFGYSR
UniProt Q96AG3: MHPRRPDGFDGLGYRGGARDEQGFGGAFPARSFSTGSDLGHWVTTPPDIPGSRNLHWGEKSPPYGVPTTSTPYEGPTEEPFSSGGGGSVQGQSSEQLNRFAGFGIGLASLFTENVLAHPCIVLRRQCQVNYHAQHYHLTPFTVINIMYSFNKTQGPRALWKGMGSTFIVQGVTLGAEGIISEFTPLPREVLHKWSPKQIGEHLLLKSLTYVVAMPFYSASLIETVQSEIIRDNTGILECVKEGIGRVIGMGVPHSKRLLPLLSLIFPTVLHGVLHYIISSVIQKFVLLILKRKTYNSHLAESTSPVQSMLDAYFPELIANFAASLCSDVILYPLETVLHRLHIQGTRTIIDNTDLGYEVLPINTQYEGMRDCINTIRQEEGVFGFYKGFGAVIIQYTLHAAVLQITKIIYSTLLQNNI
UniProt Q9H4F8: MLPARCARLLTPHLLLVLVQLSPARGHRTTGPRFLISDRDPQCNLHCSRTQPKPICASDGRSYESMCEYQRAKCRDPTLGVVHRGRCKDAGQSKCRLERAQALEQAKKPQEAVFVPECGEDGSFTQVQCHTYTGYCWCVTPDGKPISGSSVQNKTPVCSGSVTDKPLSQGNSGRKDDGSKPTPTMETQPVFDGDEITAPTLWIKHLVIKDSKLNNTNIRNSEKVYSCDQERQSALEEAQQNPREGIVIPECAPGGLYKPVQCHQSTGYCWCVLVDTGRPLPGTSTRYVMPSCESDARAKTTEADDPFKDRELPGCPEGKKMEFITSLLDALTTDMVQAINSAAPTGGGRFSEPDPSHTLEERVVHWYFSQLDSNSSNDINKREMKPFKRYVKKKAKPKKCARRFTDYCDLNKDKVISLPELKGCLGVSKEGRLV
UniProt Q8IYR2: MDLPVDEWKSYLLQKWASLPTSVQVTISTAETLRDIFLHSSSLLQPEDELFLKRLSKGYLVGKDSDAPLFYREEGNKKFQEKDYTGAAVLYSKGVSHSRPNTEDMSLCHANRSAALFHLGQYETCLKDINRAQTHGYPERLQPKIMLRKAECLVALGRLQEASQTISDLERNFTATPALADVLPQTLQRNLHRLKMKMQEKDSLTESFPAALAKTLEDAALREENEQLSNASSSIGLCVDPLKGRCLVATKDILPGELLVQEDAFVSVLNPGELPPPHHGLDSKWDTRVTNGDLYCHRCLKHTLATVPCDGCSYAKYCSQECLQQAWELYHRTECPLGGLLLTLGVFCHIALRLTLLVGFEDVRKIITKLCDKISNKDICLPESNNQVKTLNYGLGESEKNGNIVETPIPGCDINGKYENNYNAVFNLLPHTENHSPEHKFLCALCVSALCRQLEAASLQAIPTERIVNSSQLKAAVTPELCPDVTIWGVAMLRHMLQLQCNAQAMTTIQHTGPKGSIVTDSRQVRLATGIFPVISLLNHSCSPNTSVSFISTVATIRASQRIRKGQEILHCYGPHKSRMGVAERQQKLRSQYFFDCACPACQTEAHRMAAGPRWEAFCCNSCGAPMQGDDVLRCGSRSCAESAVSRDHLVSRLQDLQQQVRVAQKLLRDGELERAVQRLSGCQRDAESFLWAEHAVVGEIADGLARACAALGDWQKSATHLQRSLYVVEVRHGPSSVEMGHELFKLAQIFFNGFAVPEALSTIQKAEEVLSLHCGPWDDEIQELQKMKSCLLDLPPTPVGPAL
UniProt Q96A46: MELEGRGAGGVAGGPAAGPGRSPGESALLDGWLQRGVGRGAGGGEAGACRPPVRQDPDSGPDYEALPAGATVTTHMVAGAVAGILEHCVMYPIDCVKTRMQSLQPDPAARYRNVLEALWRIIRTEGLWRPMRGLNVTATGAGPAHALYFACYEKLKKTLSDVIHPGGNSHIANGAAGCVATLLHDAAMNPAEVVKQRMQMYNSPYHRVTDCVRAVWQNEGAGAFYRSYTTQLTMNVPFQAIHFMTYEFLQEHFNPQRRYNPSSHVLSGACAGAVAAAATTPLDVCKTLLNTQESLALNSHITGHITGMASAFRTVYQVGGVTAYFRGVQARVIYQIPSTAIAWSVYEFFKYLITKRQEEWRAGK
UniProt Q9BXS9: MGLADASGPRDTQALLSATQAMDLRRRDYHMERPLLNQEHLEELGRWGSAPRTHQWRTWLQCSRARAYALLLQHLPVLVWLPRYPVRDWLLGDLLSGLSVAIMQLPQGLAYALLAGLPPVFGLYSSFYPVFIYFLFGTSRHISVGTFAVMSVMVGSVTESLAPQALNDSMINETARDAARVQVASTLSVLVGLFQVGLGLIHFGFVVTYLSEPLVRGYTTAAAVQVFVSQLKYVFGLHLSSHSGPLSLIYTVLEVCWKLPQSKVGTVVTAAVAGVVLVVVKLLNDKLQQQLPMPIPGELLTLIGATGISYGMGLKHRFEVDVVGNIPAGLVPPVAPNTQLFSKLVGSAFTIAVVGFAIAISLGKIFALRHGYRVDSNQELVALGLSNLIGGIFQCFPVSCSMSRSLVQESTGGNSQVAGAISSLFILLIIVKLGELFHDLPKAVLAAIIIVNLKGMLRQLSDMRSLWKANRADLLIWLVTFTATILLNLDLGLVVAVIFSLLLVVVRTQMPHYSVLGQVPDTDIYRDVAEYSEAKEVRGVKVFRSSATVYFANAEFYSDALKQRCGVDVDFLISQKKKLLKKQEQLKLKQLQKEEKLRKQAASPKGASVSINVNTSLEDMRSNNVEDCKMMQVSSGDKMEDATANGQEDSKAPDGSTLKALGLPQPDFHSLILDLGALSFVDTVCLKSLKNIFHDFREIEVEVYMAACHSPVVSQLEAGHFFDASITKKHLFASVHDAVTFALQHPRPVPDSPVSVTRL

This is one part of the list. The data scatter; read single values as rough.

Compound in the first assay: ClCC(=O)N[C@@H]1CCCc2ccccc12
In words: log2 mean competition ratio of IA-DTB cysteine labelling (DMSO/compound) (log2 ratio); higher = stronger cysteine engagement by compound. Conditions: 50 µM; treatment time: 4 h; cell line lysate: HEK293T. On the procedure:
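IA-DTB competitive cysteine chemoproteomics in HEK293T RIPA lysate. Lysates were treated with compound 29 or 30 at 50 or 200 µM for 4 h, then IA-DTB (500 µM, 1 h), trypsin-digested, NeutrAvidin-enriched and analysed by diaPASEF. Competition ratio = intensity DMSO / intensity compound (n=4 treated, n=64 DMSO); binding: mean log2 CR ≥ 1 and p ≤ 0.05 plus QC filters. Target is the cysteine site.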
For the target SMURF1 C152, the “log2 mean competition ratio” value is -0.225.
The same measure, in the same setting: next, SLX4 C1269 (UniProt Q8IY92): -0.164; SLC9A3R1 C206 (UniProt O14745): -0.153.
On the same count and under the same terms, next, SNX4 C342 (UniProt O95219): -0.174.
Take SND1 C31 (UniProt Q7KZF4): the “log2 mean competition ratio” value amounted to 0.449.
Still for that read-out and setting: as for SNRPB;SNRPN C19;(C19), the figure is -0.165; as for SMG5 C109 (UniProt Q9UPR3), -0.0302.
Same read-out and setting: as for SLC25A46 C372 (UniProt Q96AG3), the figure is 0.164.
Still for that read-out and setting: as for SKIV2L C247 (UniProt Q15477), the figure is -0.0128; as for SMOC1 C67 (UniProt Q9H4F8), 0.436.
Take SMYD4 C640 (UniProt Q8IYR2): the “log2 mean competition ratio” value was -0.0623.
Turning to SLC9A3R2 C103 (UniProt Q15599), the “log2 mean competition ratio” value was -0.301.
With SLC25A28 C49 (UniProt Q96A46), the “log2 mean competition ratio” value is -0.141.
Turning to SLC47A1 C466, the “log2 mean competition ratio” value stood at 0.273.
On the same count and under the same terms, next, SLC22A17 C525: -0.204; SLX4 C519 (UniProt Q8IY92): 0.00685; SLC26A6 C565 (UniProt Q9BXS9): -0.172.
On the same count and under the same terms, as for SORT1 C702 (UniProt Q99523), the figure is 0.253; as for SOS1 C372 (UniProt Q07889), -0.156; as for SMARCA4 C1359 (UniProt P51532), -0.185.

The assay is the same for the next values; noted with them: 200 µM; treatment time: 4 h; cell line lysate: HEK293T.
On to SMURF1 C152, for which the “log2 mean competition ratio” value amounted to 0.19.
Regarding SLX4 C1269 (UniProt Q8IY92), the “log2 mean competition ratio” value was -0.178.
The same measure, in the same setting: next, SLC9A3R1 C206 (UniProt O14745): -0.017; SNX4 C342 (UniProt O95219): -0.277; SND1 C31 (UniProt Q7KZF4): 0.238.
The same measure, in the same setting: next, SNRPB;SNRPN C19;(C19): -0.0481; SMG5 C109 (UniProt Q9UPR3): -0.141; SLC25A46 C372 (UniProt Q96AG3): -0.00678.
Still for that read-out and setting: next, SKIV2L C247 (UniProt Q15477): -0.248; SMOC1 C67 (UniProt Q9H4F8): 0.132.
Consider SMYD4 C640 (UniProt Q8IYR2), for which the “log2 mean competition ratio” value was 0.209.
Same read-out and setting: next, SLC9A3R2 C103 (UniProt Q15599): -0.17; SLC25A28 C49 (UniProt Q96A46): 0.387.
For the target SLC47A1 C466, the “log2 mean competition ratio” value stood at 0.133.
On the same count and under the same terms, as for SLC22A17 C525, the figure is -0.0833; as for SLX4 C519 (UniProt Q8IY92), -0.0556.
SLC26A6 C565 (UniProt Q9BXS9): the “log2 mean competition ratio” value was determined as 0.423.
Same read-out and setting: as for SORT1 C702 (UniProt Q99523), the figure is 0.604.
Same read-out and setting: as for SOS1 C372 (UniProt Q07889), the figure is 0.309; as for SMARCA4 C1359 (UniProt P51532), 0.0814.
